Laboratory results: the supplement of paper PMC4604168 (melanoma cell lines)
The other results are listed elsewhere or left out. Many values rest on one well or one pass, so single values are uncertain.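 Imaging used 1,536-well plates; nuclei positive for cleaved PARP by antibody were divided by total DNA-stained nuclei to yield the apoptosis fraction. Doses for screening kept most cells viable, and cell lines differ markedly in resting and induced cleaved-PARP levels.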

System: IPC-298
Experiment: cleaved PARP positive nuclei fraction relative to DMSO control; melanoma cells; higher = more apoptosis
Conditions: library dose: low library concentration; 72 h

Row | SMILES | cleaved PARP positive nuclei fraction [%]
1 | CCN(CC)CCCCNc1ncc2cc(-c3cc(OC)cc(OC)c3)c(NC(=O)NC(C)(C)C)nc2n1 + COc1cc(N2CCC(N3CCN(C)CC3)CC2)ccc1Nc1ncc(Cl)c(Nc2ccccc2S(=O)(=O)C(C)C)n1 [NVP-TAE684] (first compound 0.1 µM, partner dose 0.08 µM) | 77.9
2 | O=C(Nc1ccccc1)c1cc([N+](=O)[O-])ccc1Cl + Cc1cc([N+](=O)[O-])ccc1NS(=O)(=O)c1cc(Cl)ccc1Cl [FH535] (first compound 2 µM, partner dose 1 µM) | 177
3 | COc1ccc(-c2ccc3c(N4CCOCC4)nc(N4C[C@@H](C)O[C@@H](C)C4)nc3n2)cc1CO + Cn1cc(/C=C2\C(=O)Nc3cccnc32)c2ccccc21 [GW441756] (first compound 0.02 µM, partner dose 0.4 µM) | 88.2
4 | COc1cc2c(Oc3ccc4[nH]c(C)cc4c3F)ncnc2cc1OCCCN1CCCC1 [cediranib] + O=c1cc(-c2cccc3c2Sc2ccccc2S3)oc(N2CCOCC2)c1 [KU55933] (first compound 0.4 µM, partner dose 1 µM) | 54.9
